# Data as given in PubChem BioAssay AID602196 (INSERM, 2012)
# Screen: 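Knock-downs that protect lung cancer cells from cisplatin or sensitise them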
# Cells: human A549 lung cancer cells
# Reagents: siRNA pair against human genes
# Timing: 48 h transfection before cisplatin; time from cisplatin to read-out not stated
# Conditions: cisplatin at a dose killing half of control-siRNA cells; exact dose and duration not given
# Read-out: 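Cisplatin cell death as a shift from the 50% death seen with control siRNA; siRNAs toxic or growth-blocking alone scored 0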
# Direction: two-siRNA summed score (-2 to +2): higher = both siRNAs protect from cisplatin killing; -2 means both sensitise; mean protection from cisplatin (shift in death) and protection from cisplatin (shift in death), siRNA C and protection from cisplatin (shift in death), siRNA D: higher = protection from cisplatin killing
# Call rule: 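Each siRNA scores 0 if harmful alone by LDH or WST-1, otherwise +1 if it reduces and -1 if it increases cisplatin killing; a gene is active when both siRNAs agree (sum +2 or -2)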
# Meaning of the calls: active = both siRNAs shift cisplatin killing the same way; inactive = no consistent shift, or siRNA harmful alone
# The whole screen tested about 23,000 reagents; below is a part drawn at random. Of all reagents, 455 (2%) were called active. 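Active includes both protection and sensitisation; some change values fall well beyond the stated -50 to +50 range.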 Entries without a mark were called inactive. Not given: the amount of reagent.
target,two-siRNA summed score (-2 to +2),mean protection from cisplatin (shift in death) (%),"protection from cisplatin (shift in death), siRNA C (%)","protection from cisplatin (shift in death), siRNA D (%)"
LOC389211,0,10.5,8.7,12.3
KIAA1210,0,4.3,6.5,2.1
GRWD1,0,-7,-1.2,-12.9
MBD3L1,0,3,11.8,-5.7
TAS2R45,0,-8.6,-17.5,0.2
SLC17A3,1,8.5,-5.1,22
MROH2B,0,4.1,10.6,-2.3
RNF2,0,9.6,8.9,10.4
LOC440570,0,14.5,10.9,18.1
H4C1,0,6.5,10.6,2.3
COQ6,-1,-15.7,-32.5,1
POU2F1,0,-7.6,-7.7,-7.5
LOC389166,1,7.2,0.3,14
LOC388790,0,3.4,7.2,-0.3
TCEA3,0,1.2,4,-1.5
ATP9B,-1,-2.4,-10.9,6.1
ARHGEF25,0,2.5,2.9,2.2
PLEKHB1,0,-4.6,-9.3,0
SQOR,0,7.1,5.7,8.5
LOC389067,1,15.8,16.6,15
LRRC8D,1,17.6,9.6,25.5
KRTAP4-11,0,11.9,1.7,22.2
KIAA1545,0,13.5,16.5,10.5
LOC441022,1,8.5,14,3
PARP14,0,-8.5,-5.5,-11.5
TRIM50,0,7.8,20.6,-5.1
CCL11,0,5.2,13.8,-3.4
LOC400961,0,5.3,12.7,-2.1
LRRC31,-1,-9.6,3.4,-22.7
GMIP,0,-2.5,-5.5,0.5
FOLH1,1,24.8,27.8,21.8
PAPLN,0,8.9,9.7,8.2
PHF3,0,4.7,-2.4,11.8
CTSL,-1,-10.4,2.8,-23.7
MXD4,-1,-19.8,-9.8,-29.9
NCAPG,0,4.3,3.7,4.9
MAGEB5,0,17.4,14.9,19.9
NEDD9,0,10.3,12.3,8.3
LOC401865,0,17.3,37.4,-2.7

6 neighbouring reagents already listed, quoted:
target,two-siRNA summed score (-2 to +2),mean protection from cisplatin (shift in death) (%),"protection from cisplatin (shift in death), siRNA C (%)","protection from cisplatin (shift in death), siRNA D (%)"
TAS2R45,0,-8.6,-17.5,0.2
SLC17A3,1,8.5,-5.1,22
MROH2B,0,4.1,10.6,-2.3
RNF2,0,9.6,8.9,10.4
LOC440570,0,14.5,10.9,18.1
H4C1,0,6.5,10.6,2.3
